Test results from patent publication US12017976B1, “1-(4-carbonoimidoylphenoxy)-3-{4-[(e)-(phenylimino)methyl]phenoxy }propan-2-ol as an eco-friendly insecticidal agent against Spodoptera littoralis (boisd.)” (KING FAISAL UNIVERSITY, priority 2024, dated 2024).

Test system: Spodoptera littoralis larvae (2nd and 4th instar)
Assay: Insecticidal leaf dip bioassay on larvae of the laboratory strain of cotton leafworm
Settings: probit (LDP-line) regression slope, 72 hours

CCOC(=O)NCCOc1ccc(Oc2ccccc2)cc1 [fenoxycarb]
Slope, 2nd instar larvae (2nd instar larvae): 0.298 ± 0.0808
Slope, 4th instar larvae (4th instar larvae): 0.225 ± 0.0870
